Chains of the proteins cited; added tags and fusions are not shown. Lines headed by an entry give the natural chain unless they say otherwise; changes in a name come on top.
UniProt Q04690: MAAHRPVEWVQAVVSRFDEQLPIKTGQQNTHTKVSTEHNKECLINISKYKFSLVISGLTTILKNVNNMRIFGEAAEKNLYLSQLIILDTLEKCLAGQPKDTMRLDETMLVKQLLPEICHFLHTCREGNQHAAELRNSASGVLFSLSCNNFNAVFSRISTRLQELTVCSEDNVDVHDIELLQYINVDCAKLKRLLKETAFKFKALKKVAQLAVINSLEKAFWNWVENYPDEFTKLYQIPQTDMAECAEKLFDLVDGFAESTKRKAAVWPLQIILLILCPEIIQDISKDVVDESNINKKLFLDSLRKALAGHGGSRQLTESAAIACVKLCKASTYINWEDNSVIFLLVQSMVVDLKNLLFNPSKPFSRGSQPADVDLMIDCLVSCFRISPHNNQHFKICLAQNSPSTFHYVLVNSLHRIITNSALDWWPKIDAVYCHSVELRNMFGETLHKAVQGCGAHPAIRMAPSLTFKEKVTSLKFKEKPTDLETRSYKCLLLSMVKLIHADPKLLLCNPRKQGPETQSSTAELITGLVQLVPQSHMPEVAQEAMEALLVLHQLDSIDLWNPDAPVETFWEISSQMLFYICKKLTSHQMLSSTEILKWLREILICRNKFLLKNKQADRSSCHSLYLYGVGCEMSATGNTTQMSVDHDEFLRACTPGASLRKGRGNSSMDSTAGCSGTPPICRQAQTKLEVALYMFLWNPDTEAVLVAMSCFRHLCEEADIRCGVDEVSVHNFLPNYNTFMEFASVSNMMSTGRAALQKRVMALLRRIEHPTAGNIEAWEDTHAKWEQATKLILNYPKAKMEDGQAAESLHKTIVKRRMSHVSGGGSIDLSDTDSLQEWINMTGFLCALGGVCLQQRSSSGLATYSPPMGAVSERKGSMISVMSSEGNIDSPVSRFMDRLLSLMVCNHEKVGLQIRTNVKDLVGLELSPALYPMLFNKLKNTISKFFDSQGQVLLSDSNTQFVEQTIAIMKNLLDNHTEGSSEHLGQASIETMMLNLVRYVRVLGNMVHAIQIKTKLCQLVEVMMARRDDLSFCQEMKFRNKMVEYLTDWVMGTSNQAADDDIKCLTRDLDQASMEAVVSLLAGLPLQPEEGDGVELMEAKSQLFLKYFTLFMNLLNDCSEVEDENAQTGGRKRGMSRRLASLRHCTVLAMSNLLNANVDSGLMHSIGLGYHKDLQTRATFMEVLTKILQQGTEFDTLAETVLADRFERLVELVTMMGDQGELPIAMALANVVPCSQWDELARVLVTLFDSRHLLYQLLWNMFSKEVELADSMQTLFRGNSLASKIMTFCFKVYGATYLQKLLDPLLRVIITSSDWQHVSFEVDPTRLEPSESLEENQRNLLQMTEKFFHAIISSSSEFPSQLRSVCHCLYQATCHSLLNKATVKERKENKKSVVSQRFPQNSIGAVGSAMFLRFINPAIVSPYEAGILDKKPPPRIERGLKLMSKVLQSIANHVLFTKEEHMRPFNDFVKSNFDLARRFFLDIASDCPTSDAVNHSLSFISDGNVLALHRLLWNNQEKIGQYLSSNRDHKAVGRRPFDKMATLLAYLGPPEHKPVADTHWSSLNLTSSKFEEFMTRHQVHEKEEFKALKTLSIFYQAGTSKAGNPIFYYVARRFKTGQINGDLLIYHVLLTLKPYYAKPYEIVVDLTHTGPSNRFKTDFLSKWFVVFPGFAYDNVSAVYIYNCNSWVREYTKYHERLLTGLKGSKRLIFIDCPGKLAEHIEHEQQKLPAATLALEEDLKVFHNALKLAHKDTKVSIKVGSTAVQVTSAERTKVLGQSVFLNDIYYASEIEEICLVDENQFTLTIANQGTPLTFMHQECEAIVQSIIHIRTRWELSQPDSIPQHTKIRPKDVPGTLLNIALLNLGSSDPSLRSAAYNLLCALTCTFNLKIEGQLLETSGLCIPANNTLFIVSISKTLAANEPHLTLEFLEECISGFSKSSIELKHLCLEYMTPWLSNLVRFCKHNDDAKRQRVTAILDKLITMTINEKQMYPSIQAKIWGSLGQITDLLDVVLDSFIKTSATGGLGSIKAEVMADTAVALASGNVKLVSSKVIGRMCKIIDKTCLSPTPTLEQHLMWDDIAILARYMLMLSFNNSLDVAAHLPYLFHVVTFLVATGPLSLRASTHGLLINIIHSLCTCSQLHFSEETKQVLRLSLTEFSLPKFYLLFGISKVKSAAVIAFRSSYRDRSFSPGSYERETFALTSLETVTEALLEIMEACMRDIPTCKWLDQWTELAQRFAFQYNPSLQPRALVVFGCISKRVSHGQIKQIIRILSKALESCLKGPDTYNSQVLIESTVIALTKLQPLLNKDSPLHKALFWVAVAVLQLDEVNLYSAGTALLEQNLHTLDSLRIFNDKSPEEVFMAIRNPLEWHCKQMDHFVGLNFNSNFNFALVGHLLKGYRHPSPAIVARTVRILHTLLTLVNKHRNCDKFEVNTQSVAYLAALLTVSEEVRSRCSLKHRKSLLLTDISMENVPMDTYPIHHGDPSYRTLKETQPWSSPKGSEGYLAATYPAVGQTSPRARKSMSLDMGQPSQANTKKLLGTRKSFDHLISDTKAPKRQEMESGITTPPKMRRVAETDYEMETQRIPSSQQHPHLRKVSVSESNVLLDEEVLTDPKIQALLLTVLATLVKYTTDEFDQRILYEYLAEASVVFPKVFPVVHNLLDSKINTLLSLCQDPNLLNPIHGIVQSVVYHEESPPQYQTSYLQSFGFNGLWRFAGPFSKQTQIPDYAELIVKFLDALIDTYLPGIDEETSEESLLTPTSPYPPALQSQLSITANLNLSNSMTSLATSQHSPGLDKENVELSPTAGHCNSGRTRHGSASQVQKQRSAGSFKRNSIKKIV
UniProt Q07456: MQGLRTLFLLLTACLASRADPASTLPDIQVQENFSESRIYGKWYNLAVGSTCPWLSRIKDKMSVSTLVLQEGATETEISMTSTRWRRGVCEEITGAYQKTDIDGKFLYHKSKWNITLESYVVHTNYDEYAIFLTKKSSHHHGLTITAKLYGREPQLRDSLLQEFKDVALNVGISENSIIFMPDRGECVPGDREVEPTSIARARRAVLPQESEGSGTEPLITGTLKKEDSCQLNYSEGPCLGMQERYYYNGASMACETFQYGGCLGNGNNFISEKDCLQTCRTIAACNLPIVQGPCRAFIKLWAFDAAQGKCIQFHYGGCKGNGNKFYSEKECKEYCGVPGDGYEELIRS
UniProt Q3U2E2: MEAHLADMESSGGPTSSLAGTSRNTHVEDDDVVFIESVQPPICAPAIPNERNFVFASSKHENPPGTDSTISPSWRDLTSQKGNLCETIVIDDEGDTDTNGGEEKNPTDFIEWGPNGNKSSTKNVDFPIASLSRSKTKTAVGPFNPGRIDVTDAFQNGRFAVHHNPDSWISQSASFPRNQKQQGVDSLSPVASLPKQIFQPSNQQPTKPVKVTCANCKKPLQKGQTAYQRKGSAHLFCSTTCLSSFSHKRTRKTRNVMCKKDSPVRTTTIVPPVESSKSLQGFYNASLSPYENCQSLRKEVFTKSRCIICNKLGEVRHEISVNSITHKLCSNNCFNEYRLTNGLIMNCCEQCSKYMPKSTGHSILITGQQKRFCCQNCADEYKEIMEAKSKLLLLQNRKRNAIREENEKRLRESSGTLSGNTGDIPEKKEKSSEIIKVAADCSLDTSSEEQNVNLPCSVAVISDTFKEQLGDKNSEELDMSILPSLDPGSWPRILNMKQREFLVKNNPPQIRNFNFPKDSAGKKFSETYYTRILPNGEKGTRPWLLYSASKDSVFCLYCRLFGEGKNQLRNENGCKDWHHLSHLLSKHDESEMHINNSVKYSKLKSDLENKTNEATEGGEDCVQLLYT
UniProt Q2YDW7: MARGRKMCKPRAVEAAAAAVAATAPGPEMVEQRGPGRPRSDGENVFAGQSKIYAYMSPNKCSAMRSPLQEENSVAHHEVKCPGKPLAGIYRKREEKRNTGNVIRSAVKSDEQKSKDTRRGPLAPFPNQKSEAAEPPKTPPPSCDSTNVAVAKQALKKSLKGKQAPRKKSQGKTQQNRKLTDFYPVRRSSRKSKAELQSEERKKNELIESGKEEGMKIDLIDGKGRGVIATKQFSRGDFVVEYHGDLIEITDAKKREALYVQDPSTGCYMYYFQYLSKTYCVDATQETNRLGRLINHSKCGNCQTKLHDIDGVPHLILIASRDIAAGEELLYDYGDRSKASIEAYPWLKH
UniProt Q3U276: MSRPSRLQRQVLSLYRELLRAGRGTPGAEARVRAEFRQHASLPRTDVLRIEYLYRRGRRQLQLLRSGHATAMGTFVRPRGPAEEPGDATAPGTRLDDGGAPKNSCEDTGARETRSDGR
UniProt Q149F3, whole entry: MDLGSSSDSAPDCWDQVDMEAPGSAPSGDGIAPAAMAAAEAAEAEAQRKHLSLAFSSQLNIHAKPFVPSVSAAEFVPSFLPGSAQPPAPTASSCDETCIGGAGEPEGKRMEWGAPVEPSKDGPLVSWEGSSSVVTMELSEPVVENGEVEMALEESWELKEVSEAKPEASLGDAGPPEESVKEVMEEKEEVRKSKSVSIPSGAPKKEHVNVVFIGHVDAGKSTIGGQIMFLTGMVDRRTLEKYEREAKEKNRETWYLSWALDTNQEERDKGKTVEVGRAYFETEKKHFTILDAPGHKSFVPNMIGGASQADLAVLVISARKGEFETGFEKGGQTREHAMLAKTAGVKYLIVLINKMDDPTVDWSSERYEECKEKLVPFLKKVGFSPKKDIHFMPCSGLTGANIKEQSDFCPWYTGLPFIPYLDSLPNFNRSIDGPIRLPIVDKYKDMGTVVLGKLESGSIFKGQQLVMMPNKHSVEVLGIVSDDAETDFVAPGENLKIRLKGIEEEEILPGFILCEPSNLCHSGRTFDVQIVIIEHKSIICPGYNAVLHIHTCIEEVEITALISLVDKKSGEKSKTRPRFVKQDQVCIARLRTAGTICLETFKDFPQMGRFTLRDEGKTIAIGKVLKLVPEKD
UniProt Q148V8: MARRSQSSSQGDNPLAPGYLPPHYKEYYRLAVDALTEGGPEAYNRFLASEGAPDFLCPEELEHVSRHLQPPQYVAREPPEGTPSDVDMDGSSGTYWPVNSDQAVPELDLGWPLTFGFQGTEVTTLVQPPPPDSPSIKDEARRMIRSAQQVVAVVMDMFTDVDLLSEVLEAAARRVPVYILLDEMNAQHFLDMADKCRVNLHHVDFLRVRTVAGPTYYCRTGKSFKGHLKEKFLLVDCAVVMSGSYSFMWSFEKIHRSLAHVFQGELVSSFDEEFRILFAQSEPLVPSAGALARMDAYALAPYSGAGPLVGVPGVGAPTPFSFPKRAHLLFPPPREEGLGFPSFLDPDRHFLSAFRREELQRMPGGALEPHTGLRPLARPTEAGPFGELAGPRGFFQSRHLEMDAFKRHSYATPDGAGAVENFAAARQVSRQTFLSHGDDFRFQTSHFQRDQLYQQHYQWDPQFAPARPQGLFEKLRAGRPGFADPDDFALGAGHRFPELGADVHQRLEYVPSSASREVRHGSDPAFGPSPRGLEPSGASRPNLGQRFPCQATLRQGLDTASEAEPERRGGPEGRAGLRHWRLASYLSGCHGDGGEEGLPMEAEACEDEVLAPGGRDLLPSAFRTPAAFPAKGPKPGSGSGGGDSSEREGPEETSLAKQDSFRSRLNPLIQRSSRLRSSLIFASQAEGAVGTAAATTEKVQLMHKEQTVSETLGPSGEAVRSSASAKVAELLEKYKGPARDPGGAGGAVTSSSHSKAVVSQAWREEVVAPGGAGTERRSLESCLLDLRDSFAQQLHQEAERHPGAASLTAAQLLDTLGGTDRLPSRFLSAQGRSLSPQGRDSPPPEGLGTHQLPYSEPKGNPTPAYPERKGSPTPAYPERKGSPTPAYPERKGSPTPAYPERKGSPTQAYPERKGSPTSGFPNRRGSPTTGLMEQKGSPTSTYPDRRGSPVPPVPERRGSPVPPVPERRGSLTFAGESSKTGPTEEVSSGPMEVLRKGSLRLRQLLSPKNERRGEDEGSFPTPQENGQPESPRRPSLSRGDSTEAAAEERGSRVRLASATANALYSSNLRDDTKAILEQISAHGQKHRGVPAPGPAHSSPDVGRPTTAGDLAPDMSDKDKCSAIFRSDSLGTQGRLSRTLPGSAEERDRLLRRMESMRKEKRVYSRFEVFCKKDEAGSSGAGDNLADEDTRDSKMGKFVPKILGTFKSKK
UniProt Q3TPE9: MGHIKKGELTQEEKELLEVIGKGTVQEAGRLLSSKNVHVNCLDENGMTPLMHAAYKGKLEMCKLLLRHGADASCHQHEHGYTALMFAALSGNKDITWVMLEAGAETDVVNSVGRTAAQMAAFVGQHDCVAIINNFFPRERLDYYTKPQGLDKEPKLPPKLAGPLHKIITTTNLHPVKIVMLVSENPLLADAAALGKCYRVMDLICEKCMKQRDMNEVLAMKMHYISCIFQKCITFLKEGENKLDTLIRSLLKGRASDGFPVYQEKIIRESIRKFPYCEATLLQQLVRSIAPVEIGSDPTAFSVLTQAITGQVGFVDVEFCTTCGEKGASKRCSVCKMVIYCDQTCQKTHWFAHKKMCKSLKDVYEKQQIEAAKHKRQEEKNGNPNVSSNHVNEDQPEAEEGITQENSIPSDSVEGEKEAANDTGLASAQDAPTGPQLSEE

Some of the results follow. Most entries show no effect beyond the scatter of the controls.
Each target was assayed with CN[C@@H]1C[C@H]2O[C@@](C)([C@@H]1OC)n1c3ccccc3c3c4c(c5c6ccccc6n2c5c31)C(=O)NC4 [staurosporine] (assay: log2 fold change of tryptic peptide abundance, ligand vs vehicle (limited proteolysis) (log2 ratio); higher = more trypsin-susceptible (destabilized)). Details: ligand concentration: 20 uM; sample: mouse liver crude lysate; replicate design: treated separately.
With “UniProt Q04692 (peptide sequence: ASLSCFQNQR, peptide start residue: 78)” the log2 fold change was -0.295.
“UniProt Q04690 (peptide sequence: AVQGCGAHPAIR, peptide start residue: 450)” was tested, and the log2 fold change was 0.62.
“UniProt Q07832 (peptide sequence: SASNRLKAS, peptide start residue: 595)” was tested, and the log2 fold change was 0.131.
In the case of “UniProt Q3TIV5 (peptide sequence: EKIIEDK, peptide start residue: 21)”, the log2 fold change is reported as -0.199.
“UniProt Q3TV65 (peptide sequence: MDKVPVPIRYCMLGSR, peptide start residue: 217)” was tested, and the log2 fold change was -0.192.
“UniProt Q08481 (peptide sequence: QKPVEMSRPAAPLLNSNSEK, peptide start residue: 621)” gave a log2 fold change of 0.174.
With “UniProt Q07456 (peptide sequence: GVCEEITGAYQK, peptide start residue: 88)” the log2 fold change was 0.777.
Target “UniProt Q14AX6 (peptide sequence: EGFPITAIR, peptide start residue: 743)” has a log2 fold change of -0.424.
With “UniProt Q3TAS6 (peptide sequence: LEMEQAQK, peptide start residue: 205)” the log2 fold change was -0.125.
“UniProt Q08501 (peptide sequence: RSPYHSIADVCK, peptide start residue: 418)” showed a log2 fold change of 0.182.
With “UniProt Q07079 (peptide sequence: HMEASLQEFK, peptide start residue: 194)” the log2 fold change was 0.0633.
“UniProt Q3U2E2 (peptide sequence: NVDFPIASLSR, peptide start residue: 123)” showed a log2 fold change of 0.132.
In the case of “UniProt Q06194 (peptide sequence: DNILSMENDR, peptide start residue: 983)”, the log2 fold change is reported as 0.0974.
With “UniProt Q2KN98 (peptide sequence: AQLGISEDHCEGEDR, peptide start residue: 211)” the log2 fold change was 0.386.
Work on “UniProt Q148V7 (peptide sequence: VAVLEFELR, peptide start residue: 204)” yielded a log2 fold change of 0.235.
“UniProt Q14DH7 (peptide sequence: GHVPLALCVLK, peptide start residue: 590)” was tested, and the log2 fold change was 0.126.
For “UniProt Q2YDW7 (peptide sequence: GVIATKQFSR, peptide start residue: 226)”, the log2 fold change was 0.0654.
With “UniProt Q0VDN7 (peptide sequence: ELEDFAFR, peptide start residue: 127)” the log2 fold change was -0.205.
“UniProt Q08879 (peptide sequence: TCVDINECQRYPGR, peptide start residue: 398)” gave a log2 fold change of 0.769.
In the case of “UniProt Q3U276 (peptide sequence: SGHATAMGTFVRPR, peptide start residue: 66)”, the log2 fold change is reported as -0.0713.
In the case of “UniProt Q3TJD7 (peptide sequence: ILAHLTGTEFMQDPDEEFMKK, peptide start residue: 169)”, the log2 fold change is reported as -0.188.
“UniProt Q3TYD6 (peptide sequence: YFSPPPPAR, peptide start residue: 1416)” gave a log2 fold change of 0.545.
With “UniProt Q149F3 (peptide sequence: EKLVPFLKK, peptide start residue: 376)” the log2 fold change was 0.587.
“UniProt Q03173 (peptide sequence: APSTSTPEPTR, peptide start residue: 716)” showed a log2 fold change of 0.486.
Work on “UniProt Q3THS6 (peptide sequence: HIGYDDSSKGFDYK, peptide start residue: 89)” yielded a log2 fold change of -0.518.
“UniProt Q3U2S4 (peptide sequence: ESYLQWLR, peptide start residue: 400)” was tested, and the log2 fold change was -0.374.
With “UniProt Q03958 (peptide sequence: KLQGEVEKYQQLQK, peptide start residue: 8)” the log2 fold change was -0.141.
“UniProt Q148V8 (peptide sequence: TGPTEEVSSGPMEVLRK, peptide start residue: 980)” showed a log2 fold change of -0.467.
“UniProt Q3TPE9 (peptide sequence: ELLEVIGK, peptide start residue: 15)” showed a log2 fold change of -0.272.
With “UniProt Q3TUU5 (peptide sequence: LKIPFGNK, peptide start residue: 8)” the log2 fold change was 0.523.
Target “UniProt Q3U2C5 (peptide sequence: KVIGQLPLHTVK, peptide start residue: 241)” has a log2 fold change of -0.0639.
“UniProt Q3TTA7 (peptide sequence: TVEKTWK, peptide start residue: 174)” showed a log2 fold change of -0.244.
“UniProt Q3TPJ7 (peptide sequence: HVLAAAAAAAAAAR, peptide start residue: 168)” gave a log2 fold change of 0.601.
For “UniProt Q3U2A8 (peptide sequence: LRDGNLDPGELAVAAAAQK, peptide start residue: 686)”, the log2 fold change was -0.157.
“UniProt Q3THF9 (peptide sequence: ELMLHEIHHT, peptide start residue: 231)” gave a log2 fold change of -0.297.

Source: the supplement of paper PMC12819154, “High-throughput peptide-centric local stability assay extends protein–ligand identification to membrane proteins, tissues and bacteria” (Nature Structural & Molecular Biology, 2025)
